{"source": "patent US20080166370A1", "about": "“Immunogenic Compositions Comprising Multiple Gonococcal Antigens” (CHIRON SRL, priority 2003, published 2008)", "tested_on": "gonococcal PPIase (purified recombinant protein comprising SEQ ID 4)", "test": "Chymotrypsin-coupled PPIase activity assay on purified recombinant protein", "assay_type": "biochemical, Neisseria gonorrhoeae", "conditions": "at nanomolar concentration (FIG. 12)", "note": "For at least one compound, name, drawing or mass did not settle the structure."}
{"smiles": "CO[C@H]1C[C@@H]2CC[C@@H](C)[C@@](O)(O2)C(=O)C(=O)N2CCCC[C@H]2C(=O)O[C@H]([C@H](C)C[C@@H]2CC[C@@H](O)[C@H](OC)C2)CC(=O)[C@H](C)/C=C(\\C)[C@@H](O)[C@@H](OC)C(=O)[C@H](C)C[C@H](C)/C=C/C=C/C=C/1C", "note": "[rapamycin]", "values": [{"measurement": "inhibition of PPIase activity", "value": "inhibited"}]}
